Experimental data as given in publication PMC3750173, “Ferredoxin Competes with Bacterial Frataxin in Binding to the Desulfurase IscS*^([image sbox.jpg])” (The Journal of Biological Chemistry, 2013).
These are yes or no findings as the source states them, for the method shown.

By UniProt entry, the sequences of proteins in these tests, tags left out.
UniProt P0A6B7: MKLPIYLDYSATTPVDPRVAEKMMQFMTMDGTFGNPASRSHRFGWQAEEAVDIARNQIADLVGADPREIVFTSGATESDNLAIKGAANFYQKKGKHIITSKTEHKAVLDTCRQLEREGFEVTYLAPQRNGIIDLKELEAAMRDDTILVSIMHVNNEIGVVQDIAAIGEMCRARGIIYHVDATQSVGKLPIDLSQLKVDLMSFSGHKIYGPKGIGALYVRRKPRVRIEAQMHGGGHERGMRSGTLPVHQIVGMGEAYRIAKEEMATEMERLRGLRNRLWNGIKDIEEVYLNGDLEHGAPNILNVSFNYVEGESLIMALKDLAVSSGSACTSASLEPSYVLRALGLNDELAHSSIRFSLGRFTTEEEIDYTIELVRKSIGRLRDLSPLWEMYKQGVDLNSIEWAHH

Molecular target: T1, holo-Fdx_D70K (E. coli) (UniProt P0A9R4)
T1 sequence (chain, [2Fe-2S] cluster bound (holo); 15N labelled): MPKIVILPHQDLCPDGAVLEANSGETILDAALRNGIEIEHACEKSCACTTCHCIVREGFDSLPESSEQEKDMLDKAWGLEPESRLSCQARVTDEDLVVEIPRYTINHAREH
Assay: NMR titration; 15N-SOFAST HMQC of [15N]- or [15N/2H]Fdx or Fdx mutants titrated with unlabelled IscS or IscS mutants; 20 mM Tris, 150 mM NaCl, 20 mM TCEP, pH 8, 298 K; both purified

IscS (E. coli desulfurase), wild type (from UniProt P0A6B7 1-404) (enzyme)
binding: no binding (tested: 2.5 molar eq of IscS)
